Source: paper PMC9467883
These are yes or no findings as the source states them, for the method shown.

Molecular target: Human Trio SR6-GEF1 (human) (UniProt O75962)
Test: SEC; S200 Increase 10/300 GL column in assay buffer; Stokes radii estimated from elution volume against protein standards; both purified

binding: no binding
Substance: Human Trio SR6-GEF1 (from UniProt O75962 788-1599) (domain or fragment)
